Measurements: the supplement of paper PMC12823440, “Inhibitors supercharge kinase turnover through native proteolytic circuits” (Nature, 2025)
Counter-ions that a name gives are not always drawn. Some of the results follow. Hit calls seldom repeat between salt and free forms of one compound.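 Kinases were expressed as nanoluciferase fusions in K562 cells and luminescence was read every 4 h between 2 and 18 h as percent of control, DMSO set to 100% and a positive control to 0%. A time point counts as decreased when the signal drops significantly (2 sigma). The hit call is the authors' own, does not follow from the count of time points alone, and its rule is not shown.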

Sequences of proteins named here, by UniProt entry; tags and fusion partners are left off. A change or cut given only in a name is not applied to a line headed by its entry.
UniProt Q9Y616: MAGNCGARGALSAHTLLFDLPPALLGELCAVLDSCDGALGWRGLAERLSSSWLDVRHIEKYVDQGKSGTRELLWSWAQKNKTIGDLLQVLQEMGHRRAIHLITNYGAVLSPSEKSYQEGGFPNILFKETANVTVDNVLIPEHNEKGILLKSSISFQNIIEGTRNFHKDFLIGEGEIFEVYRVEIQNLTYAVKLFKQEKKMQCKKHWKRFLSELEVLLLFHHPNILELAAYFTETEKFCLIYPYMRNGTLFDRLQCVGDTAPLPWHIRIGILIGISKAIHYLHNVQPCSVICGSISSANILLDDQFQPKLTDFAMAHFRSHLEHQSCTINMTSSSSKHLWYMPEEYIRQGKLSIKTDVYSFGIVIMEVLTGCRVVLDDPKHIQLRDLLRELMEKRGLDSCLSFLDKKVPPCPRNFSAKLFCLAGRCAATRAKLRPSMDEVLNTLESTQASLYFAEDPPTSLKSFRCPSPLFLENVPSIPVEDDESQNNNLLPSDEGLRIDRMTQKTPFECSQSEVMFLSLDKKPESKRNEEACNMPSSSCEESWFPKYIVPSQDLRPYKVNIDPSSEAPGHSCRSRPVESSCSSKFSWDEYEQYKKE
UniProt P23458: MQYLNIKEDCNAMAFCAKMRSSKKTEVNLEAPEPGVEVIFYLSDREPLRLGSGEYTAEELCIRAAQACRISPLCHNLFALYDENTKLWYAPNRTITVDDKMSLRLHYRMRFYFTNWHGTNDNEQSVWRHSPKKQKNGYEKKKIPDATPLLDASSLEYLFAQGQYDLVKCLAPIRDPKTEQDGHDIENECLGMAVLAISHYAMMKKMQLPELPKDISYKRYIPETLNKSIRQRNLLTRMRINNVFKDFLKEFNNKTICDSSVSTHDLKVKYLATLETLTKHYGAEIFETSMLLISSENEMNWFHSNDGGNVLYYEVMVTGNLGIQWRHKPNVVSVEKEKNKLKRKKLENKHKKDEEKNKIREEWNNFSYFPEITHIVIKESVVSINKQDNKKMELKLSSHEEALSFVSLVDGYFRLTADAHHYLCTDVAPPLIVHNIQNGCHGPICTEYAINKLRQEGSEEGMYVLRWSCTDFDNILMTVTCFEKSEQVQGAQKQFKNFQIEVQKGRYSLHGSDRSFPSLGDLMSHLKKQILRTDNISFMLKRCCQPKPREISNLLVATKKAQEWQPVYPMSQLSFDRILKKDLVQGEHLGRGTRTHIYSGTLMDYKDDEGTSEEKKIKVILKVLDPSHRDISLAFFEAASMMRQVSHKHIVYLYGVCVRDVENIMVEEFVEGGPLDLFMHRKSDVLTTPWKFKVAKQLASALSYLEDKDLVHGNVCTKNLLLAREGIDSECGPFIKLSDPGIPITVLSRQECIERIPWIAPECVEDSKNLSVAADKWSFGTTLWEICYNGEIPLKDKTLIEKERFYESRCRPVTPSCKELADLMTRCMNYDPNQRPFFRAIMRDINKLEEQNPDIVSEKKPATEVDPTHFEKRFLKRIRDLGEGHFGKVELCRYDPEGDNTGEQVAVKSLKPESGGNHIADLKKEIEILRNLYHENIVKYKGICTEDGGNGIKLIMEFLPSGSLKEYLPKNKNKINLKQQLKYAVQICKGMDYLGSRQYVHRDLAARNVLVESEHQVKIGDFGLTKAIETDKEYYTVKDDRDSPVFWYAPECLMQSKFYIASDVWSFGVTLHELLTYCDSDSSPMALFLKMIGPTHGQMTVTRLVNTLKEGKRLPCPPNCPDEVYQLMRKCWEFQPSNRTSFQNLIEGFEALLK
UniProt P07948: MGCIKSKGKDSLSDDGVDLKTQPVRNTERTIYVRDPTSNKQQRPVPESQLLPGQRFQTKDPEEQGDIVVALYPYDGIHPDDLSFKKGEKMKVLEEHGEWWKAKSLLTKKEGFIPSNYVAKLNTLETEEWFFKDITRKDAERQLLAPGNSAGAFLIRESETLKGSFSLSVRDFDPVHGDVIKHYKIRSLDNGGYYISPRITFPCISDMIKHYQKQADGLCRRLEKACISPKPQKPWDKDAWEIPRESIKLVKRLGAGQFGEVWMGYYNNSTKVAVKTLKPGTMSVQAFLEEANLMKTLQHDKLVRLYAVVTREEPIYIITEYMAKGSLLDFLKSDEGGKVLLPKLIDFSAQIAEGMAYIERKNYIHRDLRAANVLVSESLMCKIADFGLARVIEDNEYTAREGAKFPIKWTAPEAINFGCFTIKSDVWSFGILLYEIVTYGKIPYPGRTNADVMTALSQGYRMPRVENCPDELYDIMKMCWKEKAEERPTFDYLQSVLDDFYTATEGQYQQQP
UniProt Q12851: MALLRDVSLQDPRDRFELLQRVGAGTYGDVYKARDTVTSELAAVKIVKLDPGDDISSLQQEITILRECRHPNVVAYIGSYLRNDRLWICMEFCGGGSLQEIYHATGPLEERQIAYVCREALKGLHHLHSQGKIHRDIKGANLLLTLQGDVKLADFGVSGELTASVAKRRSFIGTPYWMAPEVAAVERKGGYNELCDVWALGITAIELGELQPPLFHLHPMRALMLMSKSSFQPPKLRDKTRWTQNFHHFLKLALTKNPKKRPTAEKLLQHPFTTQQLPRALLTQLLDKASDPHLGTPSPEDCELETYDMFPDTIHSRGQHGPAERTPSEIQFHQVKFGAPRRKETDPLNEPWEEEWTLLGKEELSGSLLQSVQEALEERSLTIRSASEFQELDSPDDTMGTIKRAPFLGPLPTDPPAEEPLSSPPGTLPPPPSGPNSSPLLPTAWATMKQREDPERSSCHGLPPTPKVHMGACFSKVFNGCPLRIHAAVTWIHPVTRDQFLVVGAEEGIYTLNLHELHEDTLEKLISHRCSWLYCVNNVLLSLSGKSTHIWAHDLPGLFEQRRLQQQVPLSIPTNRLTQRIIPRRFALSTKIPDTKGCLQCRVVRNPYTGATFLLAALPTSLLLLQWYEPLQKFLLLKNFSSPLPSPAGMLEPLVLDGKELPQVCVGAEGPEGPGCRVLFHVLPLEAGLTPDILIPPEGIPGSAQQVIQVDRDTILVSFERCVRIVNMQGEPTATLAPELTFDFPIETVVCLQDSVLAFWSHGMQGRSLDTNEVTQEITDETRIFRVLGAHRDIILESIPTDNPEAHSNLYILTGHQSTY
UniProt P28482, whole entry: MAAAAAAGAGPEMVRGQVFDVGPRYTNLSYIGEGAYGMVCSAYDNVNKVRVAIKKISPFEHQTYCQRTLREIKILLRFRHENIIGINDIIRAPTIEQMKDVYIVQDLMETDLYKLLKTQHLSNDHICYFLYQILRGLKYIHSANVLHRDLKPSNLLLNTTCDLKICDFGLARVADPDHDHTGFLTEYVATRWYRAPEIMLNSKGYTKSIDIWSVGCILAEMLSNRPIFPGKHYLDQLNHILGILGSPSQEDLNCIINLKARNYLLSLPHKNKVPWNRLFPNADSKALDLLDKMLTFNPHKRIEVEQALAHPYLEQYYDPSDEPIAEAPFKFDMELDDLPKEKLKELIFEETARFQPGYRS
UniProt Q16288, whole entry, looked up: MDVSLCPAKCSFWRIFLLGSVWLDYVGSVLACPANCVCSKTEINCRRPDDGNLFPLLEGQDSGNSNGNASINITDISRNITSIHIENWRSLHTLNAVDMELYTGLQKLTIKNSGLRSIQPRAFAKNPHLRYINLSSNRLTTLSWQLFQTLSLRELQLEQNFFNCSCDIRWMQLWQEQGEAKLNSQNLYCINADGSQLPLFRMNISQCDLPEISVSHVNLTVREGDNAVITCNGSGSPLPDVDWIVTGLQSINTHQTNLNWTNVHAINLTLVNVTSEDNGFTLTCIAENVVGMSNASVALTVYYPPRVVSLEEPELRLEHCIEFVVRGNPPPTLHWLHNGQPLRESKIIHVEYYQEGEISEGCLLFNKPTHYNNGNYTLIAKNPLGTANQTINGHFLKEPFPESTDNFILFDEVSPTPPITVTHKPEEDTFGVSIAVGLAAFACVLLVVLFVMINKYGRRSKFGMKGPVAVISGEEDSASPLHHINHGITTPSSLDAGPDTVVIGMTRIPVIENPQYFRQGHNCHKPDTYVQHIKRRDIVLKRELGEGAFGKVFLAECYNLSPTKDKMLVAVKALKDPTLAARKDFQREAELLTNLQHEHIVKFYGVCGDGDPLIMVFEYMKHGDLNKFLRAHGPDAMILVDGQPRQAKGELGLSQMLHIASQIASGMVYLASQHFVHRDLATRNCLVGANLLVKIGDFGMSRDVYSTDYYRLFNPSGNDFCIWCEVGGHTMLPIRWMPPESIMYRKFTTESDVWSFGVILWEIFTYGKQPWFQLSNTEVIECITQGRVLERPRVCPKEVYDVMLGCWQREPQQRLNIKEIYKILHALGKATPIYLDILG
UniProt O96013: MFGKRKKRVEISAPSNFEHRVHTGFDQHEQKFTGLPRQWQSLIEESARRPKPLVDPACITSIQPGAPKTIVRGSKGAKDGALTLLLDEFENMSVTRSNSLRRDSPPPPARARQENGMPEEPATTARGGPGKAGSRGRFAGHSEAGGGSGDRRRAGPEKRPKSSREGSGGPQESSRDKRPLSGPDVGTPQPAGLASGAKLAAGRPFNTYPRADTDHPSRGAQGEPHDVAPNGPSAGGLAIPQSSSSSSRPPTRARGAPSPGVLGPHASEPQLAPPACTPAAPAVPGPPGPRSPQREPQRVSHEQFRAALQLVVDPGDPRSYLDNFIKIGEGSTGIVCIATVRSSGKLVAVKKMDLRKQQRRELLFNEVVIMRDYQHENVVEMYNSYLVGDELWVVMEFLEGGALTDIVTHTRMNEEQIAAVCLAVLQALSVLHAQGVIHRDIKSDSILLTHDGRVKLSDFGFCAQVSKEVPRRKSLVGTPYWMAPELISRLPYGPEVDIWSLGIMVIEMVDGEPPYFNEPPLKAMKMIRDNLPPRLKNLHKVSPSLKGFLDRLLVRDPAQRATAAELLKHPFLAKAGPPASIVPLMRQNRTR
UniProt Q96KB5: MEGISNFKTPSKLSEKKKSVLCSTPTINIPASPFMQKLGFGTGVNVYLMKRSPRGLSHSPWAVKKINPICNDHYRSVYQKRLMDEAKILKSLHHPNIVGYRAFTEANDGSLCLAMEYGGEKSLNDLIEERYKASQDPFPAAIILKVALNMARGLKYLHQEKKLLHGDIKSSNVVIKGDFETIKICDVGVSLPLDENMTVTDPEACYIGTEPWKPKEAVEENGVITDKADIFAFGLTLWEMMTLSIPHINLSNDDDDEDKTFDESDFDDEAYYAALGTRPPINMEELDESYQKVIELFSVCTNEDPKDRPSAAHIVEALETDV
UniProt P09619, whole entry: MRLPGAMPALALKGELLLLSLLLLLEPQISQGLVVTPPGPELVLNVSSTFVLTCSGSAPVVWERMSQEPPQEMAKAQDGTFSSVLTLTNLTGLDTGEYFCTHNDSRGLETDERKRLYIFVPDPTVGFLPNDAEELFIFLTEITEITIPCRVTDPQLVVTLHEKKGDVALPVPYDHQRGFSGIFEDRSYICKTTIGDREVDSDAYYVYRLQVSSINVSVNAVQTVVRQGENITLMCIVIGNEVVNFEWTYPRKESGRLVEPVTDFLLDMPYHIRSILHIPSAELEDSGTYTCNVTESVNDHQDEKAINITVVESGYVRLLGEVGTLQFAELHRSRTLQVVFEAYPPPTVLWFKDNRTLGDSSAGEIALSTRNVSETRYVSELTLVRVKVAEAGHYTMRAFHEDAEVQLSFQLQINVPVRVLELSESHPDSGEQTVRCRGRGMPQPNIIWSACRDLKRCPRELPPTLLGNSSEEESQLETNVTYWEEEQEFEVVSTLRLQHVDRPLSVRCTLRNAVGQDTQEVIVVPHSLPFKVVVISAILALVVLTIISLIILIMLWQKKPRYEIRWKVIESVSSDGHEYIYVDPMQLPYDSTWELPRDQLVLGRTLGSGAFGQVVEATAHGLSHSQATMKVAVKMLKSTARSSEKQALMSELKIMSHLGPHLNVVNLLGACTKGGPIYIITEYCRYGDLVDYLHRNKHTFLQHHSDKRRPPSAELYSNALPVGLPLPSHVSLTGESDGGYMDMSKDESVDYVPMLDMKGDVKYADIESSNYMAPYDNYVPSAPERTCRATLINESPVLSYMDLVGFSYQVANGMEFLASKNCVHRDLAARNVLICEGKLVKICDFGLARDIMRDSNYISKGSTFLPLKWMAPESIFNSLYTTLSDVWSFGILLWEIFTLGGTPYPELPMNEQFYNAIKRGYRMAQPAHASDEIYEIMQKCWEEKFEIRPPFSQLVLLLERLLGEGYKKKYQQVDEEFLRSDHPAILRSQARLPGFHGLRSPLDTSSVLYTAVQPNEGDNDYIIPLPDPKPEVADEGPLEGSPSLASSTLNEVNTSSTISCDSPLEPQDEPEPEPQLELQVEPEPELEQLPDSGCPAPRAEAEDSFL

Assays:
Experiment in all cases: kinase-Nluc reporter destabilization hit call (1 = scored as downregulated) (binary); higher = compound decreases kinase abundance
Details in all cases: K562; 2-18 h
IRAK3 = IRAK3 (UniProt Q9Y616)
JAK1 = JAK1 (UniProt P23458)
LCK = LCK (UniProt P06239)
LIMK1 = LIMK1 (UniProt P53667)
LIMK2 = LIMK2 (UniProt P53671)
LMTK2 = LMTK2 (UniProt Q8IWU2)
LYN = LYN (UniProt P07948)
MAP2K1 = MAP2K1 (UniProt Q02750)
MAP2K2 = MAP2K2 (UniProt P36507)
MAP4K2 = MAP4K2 (UniProt Q12851)
MAPK1 = MAPK1 (UniProt P28482)
MAPK4 = MAPK4 (UniProt P31152)
MAPKAPK2 = MAPKAPK2 (UniProt P49137)
MKNK1 = MKNK1 (UniProt Q9BUB5)
NTRK2 = NTRK2 (UniProt Q16620)
NTRK3 = NTRK3 (UniProt Q16288)
PAK4 = PAK4 (UniProt O96013)
PBK = PBK (UniProt Q96KB5)
PDGFRB = PDGFRB (UniProt P09619)
PDK1 = PDK1 (UniProt Q15118)

Measured: kinase-Nluc reporter destabilization hit call

COc1cc2ncc(-c3ccccc3)nc2cc1OC [Tyrphostin AG1296] (10 µM)
inactive: IRAK3 = 0 | JAK1 = 0 | LCK 0 | LIMK1 = 0 | LIMK2 = 0 | LMTK2 = 0 | LYN 0 | MAP2K1 = 0 | MAP2K2 = 0 | MAP4K2 = 0 | MAPK1 = 0 | MAPK4 = 0 | MAPKAPK2 = 0 | MKNK1 = 0 | NTRK2 = 0 | NTRK3 = 0 | PAK4 = 0 | PBK 0 | PDGFRB 0 | PDK1 = 0

CCN1CCN(Cc2ccc(Nc3ncc(F)c(-c4cc(F)c5nc(C)n(C(C)C)c5c4)n3)nc2)CC1 [Abemaciclib (methanesulfonate)] (10 µM)
inactive: IRAK3 = 0 | JAK1 = 0 | LCK 0 | LIMK1 = 0 | LIMK2 = 0 | LMTK2 = 0 | LYN 0 | MAP2K1 = 0 | MAP2K2 = 0 | MAP4K2 = 0 | MAPK1 = 0 | MAPK4 = 0 | MAPKAPK2 = 0 | MKNK1 = 0 | NTRK2 = 0 | NTRK3 = 0 | PAK4 = 0 | PBK 0 | PDGFRB 0 | PDK1 = 0

Cn1ncc(Cl)c1-c1cc(C(=O)N[C@H](CN)Cc2ccc(F)c(F)c2)oc1Cl [Uprosertib] (10 µM)
inactive: IRAK3 = 0 | JAK1 = 0 | LCK 0 | LIMK1 = 0 | LIMK2 = 0 | LMTK2 = 0 | LYN 0 | MAP2K1 = 0 | MAP2K2 = 0 | MAP4K2 = 0 | MAPK1 = 0 | MAPK4 = 0 | MAPKAPK2 = 0 | MKNK1 = 0 | NTRK2 = 0 | NTRK3 = 0 | PAK4 = 0 | PBK 0 | PDGFRB 0 | PDK1 = 0

C[C@]1(O)CCN(c2nc(N3C[C@H](O)[C@@H](O)C3)cc(C(F)(F)F)c2C#N)C1 (10 µM)
inactive: IRAK3 = 0 | JAK1 = 0 | LCK 0 | LIMK1 = 0 | LIMK2 = 0 | LMTK2 = 0 | LYN 0 | MAP2K1 = 0 | MAP2K2 = 0 | MAP4K2 = 0 | MAPK1 = 0 | MAPK4 = 0 | MAPKAPK2 = 0 | MKNK1 = 0 | NTRK2 = 0 | NTRK3 = 0 | PAK4 = 0 | PBK 0 | PDGFRB 0 | PDK1 = 0

NCCNS(=O)(=O)c1cccc2c(Cl)cccc12 [A-3 (hydrochloride)] (10 µM)
inactive: IRAK3 = 0 | JAK1 = 0 | LCK 0 | LIMK1 = 0 | LIMK2 = 0 | LMTK2 = 0 | LYN 0 | MAP2K1 = 0 | MAP2K2 = 0 | MAP4K2 = 0 | MAPK1 = 0 | MAPK4 = 0 | MAPKAPK2 = 0 | MKNK1 = 0 | NTRK2 = 0 | NTRK3 = 0 | PAK4 = 0 | PBK 0 | PDGFRB 0 | PDK1 = 0

O=C([O-])c1cc2ccccc2c(Cc2c(O)c(C(=O)[O-])cc3ccccc23)c1O.[Na+].[Na+] [Pamoic acid (disodium)] (10 µM)
inactive: IRAK3 = 0 | JAK1 = 0 | LCK 0 | LIMK1 = 0 | LIMK2 = 0 | LMTK2 = 0 | LYN 0 | MAP2K1 = 0 | MAP2K2 = 0 | MAP4K2 = 0 | MAPK1 = 0 | MAPK4 = 0 | MAPKAPK2 = 0 | MKNK1 = 0 | NTRK2 = 0 | NTRK3 = 0 | PAK4 = 0 | PBK 0 | PDGFRB 0 | PDK1 = 0

COc1cccc(OC)c1C(=O)OCc1cc(O)ccc1O[C@@H]1O[C@H](CO)[C@@H](O)[C@H](O)[C@H]1O [Curculigoside] (10 µM)
inactive: IRAK3 = 0 | JAK1 = 0 | LCK 0 | LIMK1 = 0 | LIMK2 = 0 | LMTK2 = 0 | LYN 0 | MAP2K1 = 0 | MAP2K2 = 0 | MAP4K2 = 0 | MAPK1 = 0 | MAPK4 = 0 | MAPKAPK2 = 0 | MKNK1 = 0 | NTRK2 = 0 | NTRK3 = 0 | PAK4 = 0 | PBK 0 | PDGFRB 0 | PDK1 = 0

OCCn1cc(-c2ccc3c(c2)CC/C3=N\O)c(-c2ccncc2)n1 (10 µM)
inactive: IRAK3 = 0 | JAK1 = 0 | LCK 0 | LIMK1 = 0 | LIMK2 = 0 | LMTK2 = 0 | LYN 0 | MAP2K1 = 0 | MAP2K2 = 0 | MAP4K2 = 0 | MAPK1 = 0 | MAPK4 = 0 | MAPKAPK2 = 0 | MKNK1 = 0 | NTRK2 = 0 | NTRK3 = 0 | PAK4 = 0 | PBK 0 | PDGFRB 0 | PDK1 = 0

FC(F)c1nc2ccccc2n1-c1nc(N2CCOCC2)nc(N2CCOCC2)n1 (2 µM)
inactive: IRAK3 = 0 | JAK1 = 0 | LCK 0 | LIMK1 = 0 | LIMK2 = 0 | LMTK2 = 0 | LYN 0 | MAP2K1 = 0 | MAP2K2 = 0 | MAP4K2 = 0 | MAPK1 = 0 | MAPK4 = 0 | MAPKAPK2 = 0 | MKNK1 = 0 | NTRK2 = 0 | NTRK3 = 0 | PAK4 = 0 | PBK 0 | PDGFRB 0 | PDK1 = 0

N#Cc1c(C2CCNCC2)cc(-c2c(O)cccc2OCC2CC2)nc1N [ACHP (Hydrochloride)] (10 µM)
inactive: IRAK3 = 0 | JAK1 = 0 | LCK 0 | LIMK1 = 0 | LIMK2 = 0 | LMTK2 = 0 | LYN 0 | MAP2K1 = 0 | MAP2K2 = 0 | MAP4K2 = 0 | MAPK1 = 0 | MAPK4 = 0 | MAPKAPK2 = 0 | MKNK1 = 0 | NTRK2 = 0 | NTRK3 = 0 | PAK4 = 0 | PBK 0 | PDGFRB 0 | PDK1 = 0

CC(C)(C)c1nc(-c2cccc(NS(=O)(=O)c3c(F)cccc3F)c2F)c(-c2ccnc(N)n2)s1 [Dabrafenib] (2.5 µM)
active: LIMK1 = 1
inactive: IRAK3 = 0 | JAK1 = 0 | LCK 0 | LIMK2 = 0 | LMTK2 = 0 | LYN 0 | MAP2K1 = 0 | MAP2K2 = 0 | MAP4K2 = 0 | MAPK1 = 0 | MAPK4 = 0 | MAPKAPK2 = 0 | MKNK1 = 0 | NTRK2 = 0 | NTRK3 = 0 | PAK4 = 0 | PBK 0 | PDGFRB 0 | PDK1 = 0

C=CC(=O)Nc1cc(C)ccc1Nc1nc(Nc2cc(OC)ncc2C)ncc1C(F)(F)F (10 µM)
inactive: IRAK3 = 0 | JAK1 = 0 | LCK 0 | LIMK1 = 0 | LIMK2 = 0 | LMTK2 = 0 | LYN 0 | MAP2K1 = 0 | MAP2K2 = 0 | MAP4K2 = 0 | MAPK1 = 0 | MAPK4 = 0 | MAPKAPK2 = 0 | MKNK1 = 0 | NTRK2 = 0 | NTRK3 = 0 | PAK4 = 0 | PBK 0 | PDGFRB 0 | PDK1 = 0

O=C(CSC1=NCCN1)NC1CCCCCC1 [ICCB-19 (hydrochloride)] (2.5 µM)
inactive: IRAK3 = 0 | JAK1 = 0 | LCK 0 | LIMK1 = 0 | LIMK2 = 0 | LMTK2 = 0 | LYN 0 | MAP2K1 = 0 | MAP2K2 = 0 | MAP4K2 = 0 | MAPK1 = 0 | MAPK4 = 0 | MAPKAPK2 = 0 | MKNK1 = 0 | NTRK2 = 0 | NTRK3 = 0 | PAK4 = 0 | PBK 0 | PDGFRB 0 | PDK1 = 0

CN(C)CCCOc1ccc(-c2ccc3ncc4c(c3c2)n(C2CCOCC2)c(=O)n4C)cn1 (2 µM)
inactive: IRAK3 = 0 | JAK1 = 0 | LCK 0 | LIMK1 = 0 | LIMK2 = 0 | LMTK2 = 0 | LYN 0 | MAP2K1 = 0 | MAP2K2 = 0 | MAP4K2 = 0 | MAPK1 = 0 | MAPK4 = 0 | MAPKAPK2 = 0 | MKNK1 = 0 | NTRK2 = 0 | NTRK3 = 0 | PAK4 = 0 | PBK 0 | PDGFRB 0 | PDK1 = 0

2 neighbouring entries from above, quoted:
CC(C)(C)c1nc(-c2cccc(NS(=O)(=O)c3c(F)cccc3F)c2F)c(-c2ccnc(N)n2)s1 [Dabrafenib] (2.5 µM)
active: LIMK1 = 1
inactive: IRAK3 = 0 | JAK1 = 0 | LCK 0 | LIMK2 = 0 | LMTK2 = 0 | LYN 0 | MAP2K1 = 0 | MAP2K2 = 0 | MAP4K2 = 0 | MAPK1 = 0 | MAPK4 = 0 | MAPKAPK2 = 0 | MKNK1 = 0 | NTRK2 = 0 | NTRK3 = 0 | PAK4 = 0 | PBK 0 | PDGFRB 0 | PDK1 = 0

C=CC(=O)Nc1cc(C)ccc1Nc1nc(Nc2cc(OC)ncc2C)ncc1C(F)(F)F (10 µM)
inactive: IRAK3 = 0 | JAK1 = 0 | LCK 0 | LIMK1 = 0 | LIMK2 = 0 | LMTK2 = 0 | LYN 0 | MAP2K1 = 0 | MAP2K2 = 0 | MAP4K2 = 0 | MAPK1 = 0 | MAPK4 = 0 | MAPKAPK2 = 0 | MKNK1 = 0 | NTRK2 = 0 | NTRK3 = 0 | PAK4 = 0 | PBK 0 | PDGFRB 0 | PDK1 = 0

Following part

CN1CCN(c2cccc(Nc3nc4c(-c5ccc(S(C)(=O)=O)cc5)cccn4n3)c2)CC1 (10 µM)
inactive: IRAK3 = 0 | JAK1 = 0 | LCK 0 | LIMK1 = 0 | LIMK2 = 0 | LMTK2 = 0 | LYN 0 | MAP2K1 = 0 | MAP2K2 = 0 | MAP4K2 = 0 | MAPK1 = 0 | MAPK4 = 0 | MAPKAPK2 = 0 | MKNK1 = 0 | NTRK2 = 0 | NTRK3 = 0 | PAK4 = 0 | PBK 0 | PDGFRB 0 | PDK1 = 0

CC1(C)C(O[C@@H]2OC[C@@H](O)[C@H](O)[C@H]2O)CC[C@]23CC24CC[C@]2(C)[C@@H]([C@@]5(C)CC[C@@H](C(C)(C)O)O5)[C@H](O)C[C@@]2(C)C4C[C@@H](O[C@@H]2O[C@H](CO)[C@@H](O)[C@H](O)[C@H]2O)C13 (stereo not given in full) [Astragaloside IV] (10 µM)
inactive: IRAK3 = 0 | JAK1 = 0 | LCK 0 | LIMK1 = 0 | LIMK2 = 0 | LMTK2 = 0 | LYN 0 | MAP2K1 = 0 | MAP2K2 = 0 | MAP4K2 = 0 | MAPK1 = 0 | MAPK4 = 0 | MAPKAPK2 = 0 | MKNK1 = 0 | NTRK2 = 0 | NTRK3 = 0 | PAK4 = 0 | PBK 0 | PDGFRB 0 | PDK1 = 0

CCOC(=O)N1CCN(C(=O)[C@H](Cc2cccc(C(=N)N)c2)NS(=O)(=O)c2c(C(C)C)cc(C(C)C)cc2C(C)C)CC1 (10 µM)
inactive: IRAK3 = 0 | JAK1 = 0 | LCK 0 | LIMK1 = 0 | LIMK2 = 0 | LMTK2 = 0 | LYN 0 | MAP2K1 = 0 | MAP2K2 = 0 | MAP4K2 = 0 | MAPK1 = 0 | MAPK4 = 0 | MAPKAPK2 = 0 | MKNK1 = 0 | NTRK2 = 0 | NTRK3 = 0 | PAK4 = 0 | PBK 0 | PDGFRB 0 | PDK1 = 0
